# The list does not hold the whole screen: it gathers tests that were run many times, whatever their T/C, doses with no T/C, and many T/C values between a quarter and a half above the control. Further doses and runs are listed elsewhere. T/C gives the treated animals as a percentage of the vehicle group. Some doses have a count of surviving animals in place of a T/C: the source holds a T/C of zero for them, seemingly a mark for toxic or unscored doses. Some doses without a T/C left all or most animals alive at the check, yet need not have been tolerated: the source hardly ever lists a survival T/C far under the control, and the zero likely stands for such cases as well. Counts of survivors are from the toxicity check (mostly the fifth day) where no day follows; animals may have died later. Schedules are NCI's codes, taken here to give the interval after Q, in days (D) or hours (H), and the number of doses after X. Where survival is the endpoint, the PubChem record calls one and a half times the control and up active, and a quarter to a half above the control has no call in these data; cut-offs in other NCI protocols can differ.
# Tested on: CD2F1 mice, L1210 leukemia ip, survival T/C
# Assay: NCI In Vivo Anticancer Drug Screen. Data for tumor model L1210 Leukemia (intraperitoneal) in CD2F1 (CDF1) mice
# Conditions: higher T/C = longer survival
# Experimental: The antitumor activity of compounds was measured in mice bearing transplantable tumors. Survival or tumor size were measured and the results are expressed as the measurement made in the treated group (T) divided by the measurement made in the vehicle treated control group (C). The tumor model used in this assay is L1210 Leukemia (intraperitoneal) in CD2F1 (CDF1) mice
# [1] = T/C endpoint: mean survival time, dose: 400.0 mg/kg/injection, schedule: Q01DX001 (ip), vehicle: saline with Tween-80
# [2] = T/C endpoint: mean survival time, dose: 100.0 mg/kg/injection, schedule: Q01DX001 (ip), vehicle: saline with Tween-80
# [3] = T/C endpoint: mean survival time, dose: 400.0 mg/kg/injection, schedule: Q04DX003 (ip), vehicle: saline with Tween-80
# [4] = T/C endpoint: mean survival time, dose: 200.0 mg/kg/injection, schedule: Q04DX003 (ip), vehicle: saline with Tween-80
# [5] = T/C endpoint: mean survival time, dose: 100.0 mg/kg/injection, schedule: Q04DX003 (ip), vehicle: saline with Tween-80
smiles,measurement,setting,value
O=C(O)C(O)C(O)C(O)CO.[Zn+2] (centres undefined),survivor count,"T/C endpoint: mean survival time, dose: 100.0 mg/kg/injection, schedule: Q04DX002 (ip), vehicle: saline with Tween-80",0 of 3
same,survivor count,"T/C endpoint: mean survival time, dose: 200.0 mg/kg/injection, schedule: Q04DX002 (ip), vehicle: saline with Tween-80",0 of 3
same,survivor count,"T/C endpoint: mean survival time, dose: 400.0 mg/kg/injection, schedule: Q04DX002 (ip), vehicle: saline with Tween-80",0 of 3
O=C1C=C(c2ccccc2)C/C1=C\c1ccccc1,survivor count,[1],3 of 3
CCN(C)c1cc2c3c(c1)CCCN3CCC2,survivor count,"T/C endpoint: mean survival time, dose: 100.0 mg/kg/injection, schedule: Q01DX001 (ip), vehicle: saline",0 of 6
same,survivor count,"T/C endpoint: mean survival time, dose: 200.0 mg/kg/injection, schedule: Q01DX001 (ip), vehicle: saline",0 of 6
same,survivor count,"T/C endpoint: mean survival time, dose: 400.0 mg/kg/injection, schedule: Q01DX001 (ip), vehicle: saline",0 of 6
COc1cc2c(cc1O)NC(OC)C1CC(O)CN1C2=O (centres undefined),T/C,"T/C endpoint: median survival time, dose: 12.8 mg/kg/injection, schedule: Q01DX005 (ip), vehicle: DMSO",134 % of control
same,survivor count,"T/C endpoint: median survival time, dose: 19.2 mg/kg/injection, schedule: Q01DX005 (ip), vehicle: DMSO",1 of 6
C(=C(/C=C/c1ccccc1)/C=C/c1ccccc1)C(=C/c1ccccc1)/c1ccccc1,survivor count,"T/C endpoint: mean survival time, dose: 25.0 mg/kg/injection, schedule: Q01DX009 (ip), vehicle: saline with Tween-80",6 of 6
same,survivor count,[2],6 of 6
same,survivor count,"T/C endpoint: mean survival time, dose: 200.0 mg/kg/injection, schedule: Q01DX001 (ip), vehicle: saline with Tween-80",6 of 6
same,survivor count,[1],6 of 6
C[N+]1(CCO)C2CCC1CC(O)C2 (centres undefined),survivor count,"T/C endpoint: mean survival time, dose: 400.0 mg/kg/injection, schedule: Q04DX002 (ip), vehicle: saline",0 of 3
CN(C)CCN(Cc1ccc(Cl)cc1)c1ccccn1,survivor count,"T/C endpoint: mean survival time, dose: 12.5 mg/kg/injection, schedule: Q01DX009 (ip), vehicle: saline with Tween-80",0 of 3
same,survivor count,"T/C endpoint: mean survival time, dose: 12.5 mg/kg/injection, schedule: Q01DX009 (ip), vehicle: saline",1 of 3
same,survivor count,"T/C endpoint: mean survival time, dose: 25.0 mg/kg/injection, schedule: Q01DX009 (ip), vehicle: saline",0 of 3
same,survivor count,"T/C endpoint: mean survival time, dose: 50.0 mg/kg/injection, schedule: Q01DX009 (ip), vehicle: saline",0 of 3
CC(=O)Nc1ccccc1OC(=O)c1ccccc1,survivor count,[3],3 of 6
CCSC(=O)CC,survivor count,"T/C endpoint: mean survival time, dose: 400.0 mg/kg/injection, schedule: Q01DX009 (ip), vehicle: saline with Tween-80",3 of 6
CCCCCCCCC(=O)OCC1OC(n2cnc3c(N)nc(Cl)nc32)CC1O (centres undefined),T/C,"T/C endpoint: median survival time, dose: 25.0 mg/kg/injection, schedule: Q01DX009 (ip), vehicle: saline with Tween-80",141 % of control
CCNc1ncc2ccccc2c1-c1ccc(NCCN(CCCl)CCCl)cc1,survivor count,"T/C endpoint: mean survival time, dose: 200.0 mg/kg/injection, schedule: Q04DX003 (ip), vehicle: water",2 of 6
same,survivor count,"T/C endpoint: mean survival time, dose: 400.0 mg/kg/injection, schedule: Q04DX003 (ip), vehicle: water",0 of 6
N#CSCc1ccc(Cl)c(CSC#N)c1,survivor count,"T/C endpoint: mean survival time, dose: 150.0 mg/kg/injection, schedule: Q01DX001 (ip), vehicle: saline",2 of 6
same,survivor count,"T/C endpoint: mean survival time, dose: 300.0 mg/kg/injection, schedule: Q01DX001 (ip), vehicle: saline",1 of 6
CCCCNC(=O)C1CC2c3cccc4c3C(CN4)CC2N(C)C1 (centres undefined),survivor count,[4],2 of 6
CC1(C)N=C(N)N=C(N)N1c1ccc(CCCCc2cccc(S(=O)(=O)F)c2)c(Cl)c1,survivor count,"T/C endpoint: mean survival time, dose: 40.0 mg/kg/injection, schedule: Q01DX009 (ip), vehicle: saline with Tween-80",3 of 6
same,survivor count,[5],0 of 6
same,survivor count,[4],0 of 6
same,survivor count,[3],0 of 6
O=C(O)CCC1(CCC(=O)O)OCCO1.[Ag],survivor count,"T/C endpoint: mean survival time, dose: 75.0 mg/kg/injection, schedule: Q01DX009 (ip), vehicle: saline with Tween-80",0 of 6
CO[C@@]12[C@@H]3N[C@@H]3CN1C1=C(C(=O)C(NCCC#N)=C(C)C1=O)[C@@H]2COC(N)=O,T/C,"T/C endpoint: mean survival time, dose: 3.0 mg/kg/injection, schedule: Q01DX001 (ip), vehicle: water",129 % of control
same,T/C,"T/C endpoint: mean survival time, dose: 6.0 mg/kg/injection, schedule: Q01DX001 (ip), vehicle: water",132 % of control
same,T/C,"T/C endpoint: mean survival time, dose: 12.0 mg/kg/injection, schedule: Q01DX001 (ip), vehicle: water",137 % of control
same,survivor count,"T/C endpoint: mean survival time, dose: 24.0 mg/kg/injection, schedule: Q01DX001 (ip), vehicle: water",3 of 6
Nc1ccc(/C=C/C(=O)Nc2ccc(S(=O)(=O)F)cc2)cc1,survivor count,[1],6 of 6
[Br][Pt+2][Br].[NH-]c1ccc(F)cc1.[NH-]c1ccc(F)cc1,survivor count,"T/C endpoint: mean survival time, dose: 200.0 mg/kg/injection, schedule: Q04DX003 (ip), vehicle: distilled water + Tween-80",6 of 6
CC1=CC(=O)C(C(C)C)=CC1=O,survivor count,"T/C endpoint: mean survival time, dose: 100.0 mg/kg/injection, schedule: Q01DX009 (ip), vehicle: saline with Tween-80",3 of 6
same,survivor count,[4],4 of 6
same,survivor count,[3],3 of 6
CC(=O)C[n+]1ccccc1Sc1ccc(Cl)cc1,survivor count,"T/C endpoint: median survival time, dose: 200.0 mg/kg/injection, schedule: Q01DX005 (ip), vehicle: saline with Tween-80",0 of 6
CC[n+]1ccc(Nc2ccc(NC(=O)c3ccc(Nc4cc[n+](CC)c5ccc([N+](=O)[O-])cc45)cc3)cc2)cc1,T/C,"T/C endpoint: mean survival time, dose: 16.5 mg/kg/injection, schedule: Q01DX009 (ip), vehicle: saline",140 % of control
Cc1cc(N)c(O)cc1C,survivor count,"T/C endpoint: mean survival time, dose: 200.0 mg/kg/injection, schedule: Q01DX009 (ip), vehicle: saline",3 of 6
same,survivor count,"T/C endpoint: mean survival time, dose: 400.0 mg/kg/injection, schedule: Q01DX009 (ip), vehicle: saline",2 of 6
SCc1nc2ccccc2[nH]1,survivor count,[1],1 of 6
Cc1cn(C2CC(O)C(CS[As](C)C)O2)c(=O)[nH]c1=O (centres undefined),survivor count,"T/C endpoint: mean survival time, dose: 200.0 mg/kg/injection, schedule: Q01DX005 (ip), vehicle: distilled water + Tween-80",1 of 6
[NH-]C(CO)C(=O)O.[NH-]C(CO)C(=O)O.[Pt+2] (centres undefined),T/C,"T/C endpoint: mean survival time, dose: 3.13 mg/kg/injection, schedule: Q04DX003 (ip), vehicle: saline",127 % of control
CCN(CC)CCCC(C)Nc1cc(C)nc(Nc2nc3cc(Cl)c(Cl)cc3[nH]2)n1 (centres undefined),survivor count,[5],0 of 6
same,survivor count,[4],0 of 6
same,survivor count,[3],0 of 6
O=C1C2C3SC(c4nc5ccccc5cc43)C2C(=O)N1c1ccccc1 (centres undefined),survivor count,[2],3 of 3
CCCCCCCCCCCCCCCC(=O)N(C/C=C/CN(CCCN(C)C)C(=O)CCCCCCCCCCCCCCC)CCCN(C)C,survivor count,[5],0 of 6
same,survivor count,[4],0 of 6
same,survivor count,[3],0 of 6
